Measured values as given in the supplement of paper PMC12819154, “High-throughput peptide-centric local stability assay extends protein–ligand identification to membrane proteins, tissues and bacteria” (Nature Structural & Molecular Biology, 2025).
This is a selection; strong and weak results do not stand in their true shares. Most values lie at the level of the controls, where differences are scatter.

Sequences of proteins named here, by UniProt entry; tags and fusion partners are left off. A change or cut given only in a name is not applied to a line headed by its entry.
UniProt P43319: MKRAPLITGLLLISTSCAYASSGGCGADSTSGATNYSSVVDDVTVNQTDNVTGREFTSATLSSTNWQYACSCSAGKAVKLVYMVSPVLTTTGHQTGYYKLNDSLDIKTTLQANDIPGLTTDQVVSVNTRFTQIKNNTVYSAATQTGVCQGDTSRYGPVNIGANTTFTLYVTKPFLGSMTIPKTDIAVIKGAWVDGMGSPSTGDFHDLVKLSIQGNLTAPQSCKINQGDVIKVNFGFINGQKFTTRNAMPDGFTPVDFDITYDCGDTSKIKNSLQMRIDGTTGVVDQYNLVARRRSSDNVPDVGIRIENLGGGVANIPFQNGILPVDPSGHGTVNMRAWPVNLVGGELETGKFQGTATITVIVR
UniProt P46888: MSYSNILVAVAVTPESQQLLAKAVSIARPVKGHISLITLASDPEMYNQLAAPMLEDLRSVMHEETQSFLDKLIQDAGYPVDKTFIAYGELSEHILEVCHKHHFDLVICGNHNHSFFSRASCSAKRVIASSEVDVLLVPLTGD
UniProt P39385: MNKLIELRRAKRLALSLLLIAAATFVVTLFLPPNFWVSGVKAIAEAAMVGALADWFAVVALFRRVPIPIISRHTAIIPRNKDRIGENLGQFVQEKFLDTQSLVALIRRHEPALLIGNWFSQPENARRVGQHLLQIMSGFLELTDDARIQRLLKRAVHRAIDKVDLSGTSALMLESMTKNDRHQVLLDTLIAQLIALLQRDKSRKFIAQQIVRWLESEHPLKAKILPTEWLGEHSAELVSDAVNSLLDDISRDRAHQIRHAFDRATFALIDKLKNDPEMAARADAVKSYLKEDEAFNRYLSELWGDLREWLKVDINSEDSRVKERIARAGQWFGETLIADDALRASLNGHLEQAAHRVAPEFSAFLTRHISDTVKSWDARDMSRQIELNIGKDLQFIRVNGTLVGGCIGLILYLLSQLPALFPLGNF
UniProt P55138: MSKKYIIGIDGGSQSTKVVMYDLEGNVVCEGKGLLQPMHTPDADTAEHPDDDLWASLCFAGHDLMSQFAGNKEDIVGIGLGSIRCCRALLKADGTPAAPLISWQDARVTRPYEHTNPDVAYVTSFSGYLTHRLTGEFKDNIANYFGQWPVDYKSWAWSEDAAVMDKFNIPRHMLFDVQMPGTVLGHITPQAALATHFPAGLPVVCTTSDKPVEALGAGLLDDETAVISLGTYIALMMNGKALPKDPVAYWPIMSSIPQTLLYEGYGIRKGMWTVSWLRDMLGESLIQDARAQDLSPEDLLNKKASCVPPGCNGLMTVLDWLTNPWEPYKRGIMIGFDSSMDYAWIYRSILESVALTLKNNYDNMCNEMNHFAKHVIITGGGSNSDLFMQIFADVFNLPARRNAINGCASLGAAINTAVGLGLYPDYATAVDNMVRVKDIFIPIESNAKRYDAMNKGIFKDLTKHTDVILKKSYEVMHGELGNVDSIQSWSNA
UniProt P39337: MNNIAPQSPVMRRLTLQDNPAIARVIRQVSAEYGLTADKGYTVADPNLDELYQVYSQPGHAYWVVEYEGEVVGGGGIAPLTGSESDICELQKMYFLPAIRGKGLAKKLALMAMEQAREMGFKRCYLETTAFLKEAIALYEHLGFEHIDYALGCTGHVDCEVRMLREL
UniProt P52127: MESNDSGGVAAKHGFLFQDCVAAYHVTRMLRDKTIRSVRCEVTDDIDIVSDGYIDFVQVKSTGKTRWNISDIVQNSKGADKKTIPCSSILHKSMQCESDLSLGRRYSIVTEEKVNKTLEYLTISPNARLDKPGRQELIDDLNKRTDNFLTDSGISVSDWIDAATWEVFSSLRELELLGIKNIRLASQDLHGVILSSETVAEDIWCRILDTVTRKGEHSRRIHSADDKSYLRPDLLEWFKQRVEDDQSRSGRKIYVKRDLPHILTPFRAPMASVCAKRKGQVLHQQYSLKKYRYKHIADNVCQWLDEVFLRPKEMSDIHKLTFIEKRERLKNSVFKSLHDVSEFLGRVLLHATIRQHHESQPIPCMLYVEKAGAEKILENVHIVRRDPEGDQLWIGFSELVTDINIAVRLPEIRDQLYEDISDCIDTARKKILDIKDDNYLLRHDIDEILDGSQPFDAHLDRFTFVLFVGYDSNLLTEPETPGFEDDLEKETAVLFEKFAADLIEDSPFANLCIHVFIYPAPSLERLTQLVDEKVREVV
UniProt P63235, whole entry: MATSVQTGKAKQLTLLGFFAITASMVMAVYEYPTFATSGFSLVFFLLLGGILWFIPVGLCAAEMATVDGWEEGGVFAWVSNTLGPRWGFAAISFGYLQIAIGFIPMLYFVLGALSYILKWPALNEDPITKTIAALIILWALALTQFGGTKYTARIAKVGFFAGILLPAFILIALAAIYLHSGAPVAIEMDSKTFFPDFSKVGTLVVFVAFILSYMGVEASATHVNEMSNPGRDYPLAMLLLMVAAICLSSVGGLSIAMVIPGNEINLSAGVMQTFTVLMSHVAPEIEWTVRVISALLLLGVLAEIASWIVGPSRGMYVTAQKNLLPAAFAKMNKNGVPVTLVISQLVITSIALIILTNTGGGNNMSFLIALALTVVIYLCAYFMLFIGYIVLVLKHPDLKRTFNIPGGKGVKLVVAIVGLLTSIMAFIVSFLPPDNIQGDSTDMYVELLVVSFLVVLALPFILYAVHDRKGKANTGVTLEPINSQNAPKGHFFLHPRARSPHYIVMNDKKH
UniProt P39347: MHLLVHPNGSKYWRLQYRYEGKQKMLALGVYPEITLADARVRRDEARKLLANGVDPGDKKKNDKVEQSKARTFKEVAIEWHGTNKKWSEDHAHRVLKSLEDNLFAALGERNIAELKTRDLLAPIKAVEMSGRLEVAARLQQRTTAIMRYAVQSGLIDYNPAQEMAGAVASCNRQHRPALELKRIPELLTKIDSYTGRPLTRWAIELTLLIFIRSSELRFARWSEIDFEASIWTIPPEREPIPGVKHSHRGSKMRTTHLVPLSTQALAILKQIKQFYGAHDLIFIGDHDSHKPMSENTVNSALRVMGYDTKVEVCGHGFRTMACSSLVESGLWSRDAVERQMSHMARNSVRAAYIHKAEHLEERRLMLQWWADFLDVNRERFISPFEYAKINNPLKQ
UniProt P43671: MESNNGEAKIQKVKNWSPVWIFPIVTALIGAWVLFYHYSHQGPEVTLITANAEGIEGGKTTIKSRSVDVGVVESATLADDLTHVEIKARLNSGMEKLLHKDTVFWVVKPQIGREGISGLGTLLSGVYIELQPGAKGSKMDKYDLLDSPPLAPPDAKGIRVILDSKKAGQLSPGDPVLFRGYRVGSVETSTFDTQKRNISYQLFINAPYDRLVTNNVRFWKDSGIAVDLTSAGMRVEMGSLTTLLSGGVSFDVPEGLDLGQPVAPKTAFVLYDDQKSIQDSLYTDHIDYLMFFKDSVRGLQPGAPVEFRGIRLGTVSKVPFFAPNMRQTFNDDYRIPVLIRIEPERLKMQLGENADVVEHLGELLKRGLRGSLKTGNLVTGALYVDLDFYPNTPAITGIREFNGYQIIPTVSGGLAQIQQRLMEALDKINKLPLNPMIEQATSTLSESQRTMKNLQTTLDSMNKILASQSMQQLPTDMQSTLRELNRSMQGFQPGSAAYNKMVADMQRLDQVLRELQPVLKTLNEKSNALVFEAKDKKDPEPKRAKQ
UniProt P45804: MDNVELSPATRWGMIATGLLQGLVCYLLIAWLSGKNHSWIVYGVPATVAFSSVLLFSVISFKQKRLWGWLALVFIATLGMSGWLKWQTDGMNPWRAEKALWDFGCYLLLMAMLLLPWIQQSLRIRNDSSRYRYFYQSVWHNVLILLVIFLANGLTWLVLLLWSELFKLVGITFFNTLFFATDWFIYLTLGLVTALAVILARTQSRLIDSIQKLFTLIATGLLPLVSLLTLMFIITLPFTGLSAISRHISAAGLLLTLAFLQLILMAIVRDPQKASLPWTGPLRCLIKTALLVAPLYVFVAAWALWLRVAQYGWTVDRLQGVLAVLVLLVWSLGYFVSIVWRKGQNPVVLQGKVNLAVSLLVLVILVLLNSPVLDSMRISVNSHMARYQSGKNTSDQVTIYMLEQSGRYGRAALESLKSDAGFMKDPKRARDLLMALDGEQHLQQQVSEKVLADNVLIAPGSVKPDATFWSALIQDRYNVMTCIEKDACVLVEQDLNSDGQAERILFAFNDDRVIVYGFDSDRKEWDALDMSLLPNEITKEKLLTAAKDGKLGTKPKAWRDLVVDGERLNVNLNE
UniProt P45758: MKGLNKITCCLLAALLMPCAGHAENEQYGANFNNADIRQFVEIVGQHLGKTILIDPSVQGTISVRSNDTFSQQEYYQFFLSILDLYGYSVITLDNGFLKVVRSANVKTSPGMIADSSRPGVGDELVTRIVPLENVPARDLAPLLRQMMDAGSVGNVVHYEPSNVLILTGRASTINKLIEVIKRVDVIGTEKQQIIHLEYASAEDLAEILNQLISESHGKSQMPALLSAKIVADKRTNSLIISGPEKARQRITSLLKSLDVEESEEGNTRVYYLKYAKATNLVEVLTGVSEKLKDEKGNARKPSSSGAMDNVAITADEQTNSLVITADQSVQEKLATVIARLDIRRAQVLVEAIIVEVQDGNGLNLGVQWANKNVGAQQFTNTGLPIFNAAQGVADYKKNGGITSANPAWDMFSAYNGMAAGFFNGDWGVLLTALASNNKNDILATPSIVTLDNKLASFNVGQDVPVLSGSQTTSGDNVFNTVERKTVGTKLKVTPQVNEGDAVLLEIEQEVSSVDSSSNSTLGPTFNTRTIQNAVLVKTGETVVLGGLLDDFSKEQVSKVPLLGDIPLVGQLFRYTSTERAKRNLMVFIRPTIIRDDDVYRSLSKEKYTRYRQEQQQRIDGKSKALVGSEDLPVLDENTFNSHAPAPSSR
UniProt P39384: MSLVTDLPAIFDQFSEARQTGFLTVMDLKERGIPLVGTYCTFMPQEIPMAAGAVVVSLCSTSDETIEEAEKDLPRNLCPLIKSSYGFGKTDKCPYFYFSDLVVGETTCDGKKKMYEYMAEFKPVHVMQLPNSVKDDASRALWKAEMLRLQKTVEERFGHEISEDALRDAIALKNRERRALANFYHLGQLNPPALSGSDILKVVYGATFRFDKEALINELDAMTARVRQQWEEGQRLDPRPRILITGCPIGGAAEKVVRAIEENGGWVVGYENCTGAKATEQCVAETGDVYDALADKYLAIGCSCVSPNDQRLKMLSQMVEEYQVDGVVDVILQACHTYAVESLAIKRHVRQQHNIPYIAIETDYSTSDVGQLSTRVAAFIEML
UniProt P42628: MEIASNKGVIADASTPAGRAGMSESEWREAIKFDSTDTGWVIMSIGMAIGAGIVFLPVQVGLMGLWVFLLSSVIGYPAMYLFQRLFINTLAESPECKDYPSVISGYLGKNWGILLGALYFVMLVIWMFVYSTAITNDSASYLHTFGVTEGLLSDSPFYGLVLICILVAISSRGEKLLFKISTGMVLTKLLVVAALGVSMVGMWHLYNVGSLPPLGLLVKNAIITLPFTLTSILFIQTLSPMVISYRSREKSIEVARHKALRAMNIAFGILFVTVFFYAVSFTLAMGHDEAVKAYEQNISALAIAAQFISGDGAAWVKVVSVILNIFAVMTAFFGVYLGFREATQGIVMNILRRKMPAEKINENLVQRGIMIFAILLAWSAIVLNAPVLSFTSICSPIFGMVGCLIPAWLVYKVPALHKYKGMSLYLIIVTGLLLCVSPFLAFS
UniProt P52096: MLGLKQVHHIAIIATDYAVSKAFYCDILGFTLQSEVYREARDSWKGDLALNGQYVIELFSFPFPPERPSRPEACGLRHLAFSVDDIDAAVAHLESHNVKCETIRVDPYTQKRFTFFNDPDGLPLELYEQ
UniProt P39334: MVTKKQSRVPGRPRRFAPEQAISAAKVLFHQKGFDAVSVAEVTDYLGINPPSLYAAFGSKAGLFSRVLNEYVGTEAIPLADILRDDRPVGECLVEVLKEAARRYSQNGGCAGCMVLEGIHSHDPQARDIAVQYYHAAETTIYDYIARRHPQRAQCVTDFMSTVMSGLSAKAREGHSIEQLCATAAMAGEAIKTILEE
UniProt P39361: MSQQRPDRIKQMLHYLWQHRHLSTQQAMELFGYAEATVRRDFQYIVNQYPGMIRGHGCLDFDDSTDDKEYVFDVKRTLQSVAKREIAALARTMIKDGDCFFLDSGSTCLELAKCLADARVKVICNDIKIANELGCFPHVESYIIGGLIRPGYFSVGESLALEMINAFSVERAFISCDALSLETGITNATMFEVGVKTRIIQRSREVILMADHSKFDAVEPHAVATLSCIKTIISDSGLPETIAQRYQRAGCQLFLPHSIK
UniProt P45563: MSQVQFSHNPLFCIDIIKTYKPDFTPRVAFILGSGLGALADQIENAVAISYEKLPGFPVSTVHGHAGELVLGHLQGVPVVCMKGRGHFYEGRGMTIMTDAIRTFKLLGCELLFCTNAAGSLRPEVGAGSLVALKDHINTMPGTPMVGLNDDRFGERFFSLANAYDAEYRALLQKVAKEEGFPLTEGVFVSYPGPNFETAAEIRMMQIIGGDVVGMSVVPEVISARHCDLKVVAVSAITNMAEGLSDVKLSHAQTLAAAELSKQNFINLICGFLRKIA

Compound: Nc1ncnc2c1ncn2[C@@H]1O[C@H](COP(=O)(O)OP(=O)(O)OP(=O)(O)O)[C@@H](O)[C@H]1O [adenosine 5'-triphosphate]
Assay: log2 fold change of tryptic peptide abundance, ligand vs vehicle (limited proteolysis) (log2 ratio); higher = more trypsin-susceptible (destabilized)
Settings: ligand concentration: 5 mM; sample: E. coli desalted lysate; replicate design: treated before aliquoting
Experimental: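 HT-PELSA: desalted E. coli K-12 BW25113 lysate (with 12 mM MgCl2) incubated with 5 mM ATP (pH 7) or water for 30 min at 25 C, then a 4 min trypsin pulse at 22 C. Peptides were quantified by DIA-MS (4 replicates). Value is the peptide log2 fold change (treated/control); negative = stabilized. Scale: negative = ligand-stabilized region.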
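Further: lysate desalted by size exclusion to strip endogenous ATP, peptide intensities built from DIA-NN precursor signals, and peptides missing any value discarded before comparison.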

Q: With “UniProt P52132 (peptide sequence: FGAANLIR, peptide start residue: 8)” as the target, how does the log2 fold change read?
A: Its log2 fold change is 0.523.

Q: With “UniProt P43319 (peptide sequence: VNFGFINGQK, peptide start residue: 232)” as the target, how does the log2 fold change read?
A: The log2 fold change was -0.205.

Q: With “UniProt P46888 (peptide sequence: AVSIARPVK, peptide start residue: 23)” as the target, how does the log2 fold change read?
A: The log2 fold change was 0.208.

Q: “UniProt P39385 (peptide sequence: ASLNGHLEQAAHR, peptide start residue: 344)” was tested. Which log2 fold change did it give?
A: The log2 fold change was -0.476.

Q: With “UniProt P55138 (peptide sequence: AQDLSPEDLLNKK, peptide start residue: 291)” as the target, how does the log2 fold change read?
A: Its log2 fold change is -0.326.

Q: “UniProt P39391 (peptide sequence: QSGFSALSLAR, peptide start residue: 185)” was tested. Which log2 fold change did it give?
A: Its log2 fold change is -0.206.

Q: How did the log2 fold change turn out when “UniProt P39337 (peptide sequence: LTLQDNPAIAR, peptide start residue: 14)” was run?
A: The log2 fold change was 0.226.

Q: For “UniProt P52127 (peptide sequence: ILENVHIVR, peptide start residue: 376)”, which log2 fold change is on record?
A: Its log2 fold change is 1.04.

Q: With “UniProt P63235 (peptide sequence: NLLPAAFAK, peptide start residue: 323)” as the target, how does the log2 fold change read?
A: Its log2 fold change is -0.634.

Q: With “UniProt P39347 (peptide sequence: KLLANGVDPGDKK, peptide start residue: 48)” as the target, how does the log2 fold change read?
A: The log2 fold change was -1.32.

Q: “UniProt P45424 (peptide sequence: ILFGMAGTAR, peptide start residue: 81)” was tested. Which log2 fold change did it give?
A: Its log2 fold change is -0.12.

Q: “UniProt P64588 (peptide sequence: FFGHGELR, peptide start residue: 57)” was tested. Which log2 fold change did it give?
A: Its log2 fold change is -0.27.

Q: “UniProt P43671 (peptide sequence: SNALVFEAK, peptide start residue: 526)” was tested. Which log2 fold change did it give?
A: Its log2 fold change is 0.075.

Q: “UniProt P45753 (peptide sequence: TLLPWSR, peptide start residue: 58)” was tested. Which log2 fold change did it give?
A: The log2 fold change was 0.446.

Q: “UniProt P45804 (peptide sequence: DLVVDGER, peptide start residue: 560)” was tested. Which log2 fold change did it give?
A: The log2 fold change was 0.0315.

Q: With “UniProt P52045 (peptide sequence: VLGEAHTMNSDEFER, peptide start residue: 215)” as the target, how does the log2 fold change read?
A: The log2 fold change was -0.0782.

Q: How did the log2 fold change turn out when “UniProt P42907 (peptide sequence: LAAFYDSPTGFR, peptide start residue: 254)” was run?
A: Its log2 fold change is 0.521.

Q: “UniProt P45758 (peptide sequence: YTSTERAK, peptide start residue: 575)” was tested. Which log2 fold change did it give?
A: The log2 fold change was 0.146.

Q: Which log2 fold change does the source give for “UniProt P42909 (peptide sequence: DVNVGNMHFSEGKK, peptide start residue: 104)” here?
A: Its log2 fold change is 0.503.

Q: Which log2 fold change does the source give for “UniProt P39384 (peptide sequence: QQWEEGQR, peptide start residue: 228)” here?
A: Its log2 fold change is -0.187.

Q: With “UniProt P52007 (peptide sequence: FIHALDELSRR, peptide start residue: 20)” as the target, how does the log2 fold change read?
A: The log2 fold change was 0.189.

Q: “UniProt P42628 (peptide sequence: GVIADASTPAGR, peptide start residue: 8)” was tested. Which log2 fold change did it give?
A: The log2 fold change was -0.165.

Q: “UniProt P63201 (peptide sequence: MYTSESLIK, peptide start residue: 162)” was tested. Which log2 fold change did it give?
A: Its log2 fold change is 0.344.

Q: With “UniProt P39451 (peptide sequence: DHHVDVTYK, peptide start residue: 9)” as the target, how does the log2 fold change read?
A: Its log2 fold change is -0.453.

Q: For “UniProt P52096 (peptide sequence: VDPYTQKR, peptide start residue: 105)”, which log2 fold change is on record?
A: Its log2 fold change is -0.685.

Q: Which log2 fold change does the source give for “UniProt P39334 (peptide sequence: DDRPVGECLVEVLK, peptide start residue: 85)” here?
A: Its log2 fold change is 0.176.

Q: Which log2 fold change does the source give for “UniProt P39382 (peptide sequence: NTLLVLSHESR, peptide start residue: 216)” here?
A: The log2 fold change was -0.101.

Q: How did the log2 fold change turn out when “UniProt P52647 (peptide sequence: ALNPEHPVIR, peptide start residue: 203)” was run?
A: The log2 fold change was 0.437.

Q: With “UniProt P56262 (peptide sequence: AAVAWYGK, peptide start residue: 165)” as the target, how does the log2 fold change read?
A: Its log2 fold change is 0.278.

Q: For “UniProt P39361 (peptide sequence: TLQSVAKR, peptide start residue: 77)”, which log2 fold change is on record?
A: Its log2 fold change is -0.0784.

Q: How did the log2 fold change turn out when “UniProt P45563 (peptide sequence: TYKPDFTPR, peptide start residue: 19)” was run?
A: Its log2 fold change is 0.521.

Q: How did the log2 fold change turn out when “UniProt P45524 (peptide sequence: IREFDDLITAR, peptide start residue: 235)” was run?
A: The log2 fold change was -0.25.
